Assay results taken from paper doi:10.1101/683995.
No constants are given. Whether binding was seen depends on the method and setting. In cells and extracts the contact can be indirect. Binding can be weak; no strength is given.

Protein sequences, listed by entry. Tags and fused reporters are not part of them. Lines headed by an entry give the natural chain unless they say otherwise; changes in a name come on top.
UniProt P45444: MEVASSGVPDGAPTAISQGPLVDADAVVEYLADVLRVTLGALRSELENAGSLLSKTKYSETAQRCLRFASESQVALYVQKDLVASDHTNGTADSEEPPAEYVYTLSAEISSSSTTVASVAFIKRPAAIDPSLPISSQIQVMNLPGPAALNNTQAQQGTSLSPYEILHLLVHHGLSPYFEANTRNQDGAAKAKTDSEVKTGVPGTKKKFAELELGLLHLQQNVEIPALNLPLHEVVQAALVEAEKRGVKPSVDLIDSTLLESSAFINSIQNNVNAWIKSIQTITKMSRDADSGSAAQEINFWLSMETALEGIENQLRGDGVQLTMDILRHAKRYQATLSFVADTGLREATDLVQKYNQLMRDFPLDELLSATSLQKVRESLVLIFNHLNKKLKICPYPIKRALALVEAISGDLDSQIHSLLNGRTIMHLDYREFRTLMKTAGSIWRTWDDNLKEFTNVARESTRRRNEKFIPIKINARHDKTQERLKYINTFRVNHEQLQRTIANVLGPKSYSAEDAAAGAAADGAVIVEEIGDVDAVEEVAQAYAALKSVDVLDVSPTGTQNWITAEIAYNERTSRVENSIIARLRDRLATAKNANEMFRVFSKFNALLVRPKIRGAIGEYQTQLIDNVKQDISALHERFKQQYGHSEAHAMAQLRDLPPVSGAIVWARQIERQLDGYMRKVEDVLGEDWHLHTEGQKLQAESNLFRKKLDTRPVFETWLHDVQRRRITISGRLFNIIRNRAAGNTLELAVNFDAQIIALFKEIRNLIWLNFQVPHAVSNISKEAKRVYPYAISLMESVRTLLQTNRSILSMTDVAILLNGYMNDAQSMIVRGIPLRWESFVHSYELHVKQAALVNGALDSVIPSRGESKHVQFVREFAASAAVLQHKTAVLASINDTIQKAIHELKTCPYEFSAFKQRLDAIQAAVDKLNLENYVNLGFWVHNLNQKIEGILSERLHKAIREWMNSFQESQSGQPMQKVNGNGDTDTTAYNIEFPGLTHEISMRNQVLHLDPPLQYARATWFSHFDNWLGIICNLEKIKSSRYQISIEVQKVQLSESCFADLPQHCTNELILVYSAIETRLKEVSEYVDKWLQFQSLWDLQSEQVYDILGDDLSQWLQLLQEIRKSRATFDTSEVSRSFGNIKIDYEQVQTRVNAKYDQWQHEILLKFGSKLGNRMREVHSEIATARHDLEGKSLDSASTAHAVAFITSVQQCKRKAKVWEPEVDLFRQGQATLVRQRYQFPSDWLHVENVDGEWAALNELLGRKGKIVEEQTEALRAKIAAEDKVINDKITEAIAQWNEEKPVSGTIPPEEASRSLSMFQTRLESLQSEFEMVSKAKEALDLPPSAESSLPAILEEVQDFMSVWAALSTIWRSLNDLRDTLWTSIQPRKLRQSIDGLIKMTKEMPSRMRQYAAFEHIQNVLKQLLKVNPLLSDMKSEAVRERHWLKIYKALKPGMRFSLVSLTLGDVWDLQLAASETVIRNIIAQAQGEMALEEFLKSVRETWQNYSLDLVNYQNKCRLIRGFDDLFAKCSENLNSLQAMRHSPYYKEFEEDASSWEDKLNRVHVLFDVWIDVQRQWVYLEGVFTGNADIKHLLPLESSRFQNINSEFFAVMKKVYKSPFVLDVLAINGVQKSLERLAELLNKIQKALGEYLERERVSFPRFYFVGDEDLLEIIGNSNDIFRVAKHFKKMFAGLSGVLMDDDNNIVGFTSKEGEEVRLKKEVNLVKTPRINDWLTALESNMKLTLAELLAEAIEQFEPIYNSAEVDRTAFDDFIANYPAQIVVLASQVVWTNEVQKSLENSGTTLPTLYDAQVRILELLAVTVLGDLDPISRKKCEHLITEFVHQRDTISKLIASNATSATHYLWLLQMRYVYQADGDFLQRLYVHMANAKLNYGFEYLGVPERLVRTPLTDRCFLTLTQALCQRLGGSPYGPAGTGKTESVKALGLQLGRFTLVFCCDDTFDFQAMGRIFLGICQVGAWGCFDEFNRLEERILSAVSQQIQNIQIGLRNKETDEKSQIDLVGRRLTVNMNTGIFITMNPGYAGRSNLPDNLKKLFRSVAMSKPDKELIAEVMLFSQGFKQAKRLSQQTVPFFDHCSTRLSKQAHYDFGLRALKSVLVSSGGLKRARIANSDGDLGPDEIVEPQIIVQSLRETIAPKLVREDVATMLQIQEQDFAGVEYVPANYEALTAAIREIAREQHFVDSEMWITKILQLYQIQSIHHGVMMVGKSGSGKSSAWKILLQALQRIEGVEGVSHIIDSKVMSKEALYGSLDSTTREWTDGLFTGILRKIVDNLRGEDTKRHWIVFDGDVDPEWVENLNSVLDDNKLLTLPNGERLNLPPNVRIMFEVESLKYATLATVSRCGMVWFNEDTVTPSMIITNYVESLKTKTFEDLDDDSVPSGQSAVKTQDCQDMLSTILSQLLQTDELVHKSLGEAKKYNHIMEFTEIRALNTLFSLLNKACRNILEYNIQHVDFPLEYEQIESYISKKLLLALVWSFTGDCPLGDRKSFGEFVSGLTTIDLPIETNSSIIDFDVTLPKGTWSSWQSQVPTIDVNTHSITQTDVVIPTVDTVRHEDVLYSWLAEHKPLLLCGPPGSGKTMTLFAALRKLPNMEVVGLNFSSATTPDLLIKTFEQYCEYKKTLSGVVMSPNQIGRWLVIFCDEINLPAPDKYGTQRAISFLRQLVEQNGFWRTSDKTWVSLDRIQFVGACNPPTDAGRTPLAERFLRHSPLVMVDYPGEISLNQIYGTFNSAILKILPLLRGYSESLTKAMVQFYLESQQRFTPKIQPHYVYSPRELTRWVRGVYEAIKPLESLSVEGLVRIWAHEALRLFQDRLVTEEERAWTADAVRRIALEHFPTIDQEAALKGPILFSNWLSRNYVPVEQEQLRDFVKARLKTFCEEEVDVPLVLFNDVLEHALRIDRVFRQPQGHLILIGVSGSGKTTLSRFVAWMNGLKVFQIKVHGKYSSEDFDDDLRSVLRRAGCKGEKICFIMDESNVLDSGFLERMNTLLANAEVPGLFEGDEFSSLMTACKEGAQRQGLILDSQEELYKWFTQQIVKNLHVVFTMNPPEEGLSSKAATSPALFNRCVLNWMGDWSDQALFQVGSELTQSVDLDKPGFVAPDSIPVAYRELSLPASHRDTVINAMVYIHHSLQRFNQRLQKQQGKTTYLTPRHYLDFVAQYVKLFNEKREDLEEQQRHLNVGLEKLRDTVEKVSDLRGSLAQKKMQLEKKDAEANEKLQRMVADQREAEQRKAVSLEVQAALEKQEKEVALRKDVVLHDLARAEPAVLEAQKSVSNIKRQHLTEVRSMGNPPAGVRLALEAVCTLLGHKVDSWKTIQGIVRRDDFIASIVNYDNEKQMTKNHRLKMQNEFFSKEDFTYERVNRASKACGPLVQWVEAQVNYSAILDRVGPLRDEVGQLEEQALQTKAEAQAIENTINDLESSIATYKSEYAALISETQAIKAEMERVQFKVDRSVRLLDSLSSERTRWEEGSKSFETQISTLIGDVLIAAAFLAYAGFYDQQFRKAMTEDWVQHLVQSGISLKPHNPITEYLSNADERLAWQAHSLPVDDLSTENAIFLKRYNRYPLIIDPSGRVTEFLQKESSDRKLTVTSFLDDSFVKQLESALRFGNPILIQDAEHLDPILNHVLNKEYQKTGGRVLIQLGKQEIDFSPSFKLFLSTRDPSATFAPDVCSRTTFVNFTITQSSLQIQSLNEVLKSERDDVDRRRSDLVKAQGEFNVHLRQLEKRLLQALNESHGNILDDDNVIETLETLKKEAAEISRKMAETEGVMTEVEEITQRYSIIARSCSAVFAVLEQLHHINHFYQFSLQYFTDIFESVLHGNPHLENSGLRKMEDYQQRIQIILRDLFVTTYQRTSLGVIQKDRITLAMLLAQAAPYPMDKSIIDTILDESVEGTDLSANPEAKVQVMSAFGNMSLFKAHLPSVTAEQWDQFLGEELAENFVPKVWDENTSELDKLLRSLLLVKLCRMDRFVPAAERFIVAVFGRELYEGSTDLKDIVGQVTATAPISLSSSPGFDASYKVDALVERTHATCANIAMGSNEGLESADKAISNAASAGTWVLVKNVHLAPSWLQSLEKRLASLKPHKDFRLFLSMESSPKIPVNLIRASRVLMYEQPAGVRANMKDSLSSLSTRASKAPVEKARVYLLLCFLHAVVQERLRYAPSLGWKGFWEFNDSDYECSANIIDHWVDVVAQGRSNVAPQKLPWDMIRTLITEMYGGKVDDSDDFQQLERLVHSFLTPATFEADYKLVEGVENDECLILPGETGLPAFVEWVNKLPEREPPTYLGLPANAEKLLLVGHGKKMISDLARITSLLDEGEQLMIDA
UniProt Q8J0T2: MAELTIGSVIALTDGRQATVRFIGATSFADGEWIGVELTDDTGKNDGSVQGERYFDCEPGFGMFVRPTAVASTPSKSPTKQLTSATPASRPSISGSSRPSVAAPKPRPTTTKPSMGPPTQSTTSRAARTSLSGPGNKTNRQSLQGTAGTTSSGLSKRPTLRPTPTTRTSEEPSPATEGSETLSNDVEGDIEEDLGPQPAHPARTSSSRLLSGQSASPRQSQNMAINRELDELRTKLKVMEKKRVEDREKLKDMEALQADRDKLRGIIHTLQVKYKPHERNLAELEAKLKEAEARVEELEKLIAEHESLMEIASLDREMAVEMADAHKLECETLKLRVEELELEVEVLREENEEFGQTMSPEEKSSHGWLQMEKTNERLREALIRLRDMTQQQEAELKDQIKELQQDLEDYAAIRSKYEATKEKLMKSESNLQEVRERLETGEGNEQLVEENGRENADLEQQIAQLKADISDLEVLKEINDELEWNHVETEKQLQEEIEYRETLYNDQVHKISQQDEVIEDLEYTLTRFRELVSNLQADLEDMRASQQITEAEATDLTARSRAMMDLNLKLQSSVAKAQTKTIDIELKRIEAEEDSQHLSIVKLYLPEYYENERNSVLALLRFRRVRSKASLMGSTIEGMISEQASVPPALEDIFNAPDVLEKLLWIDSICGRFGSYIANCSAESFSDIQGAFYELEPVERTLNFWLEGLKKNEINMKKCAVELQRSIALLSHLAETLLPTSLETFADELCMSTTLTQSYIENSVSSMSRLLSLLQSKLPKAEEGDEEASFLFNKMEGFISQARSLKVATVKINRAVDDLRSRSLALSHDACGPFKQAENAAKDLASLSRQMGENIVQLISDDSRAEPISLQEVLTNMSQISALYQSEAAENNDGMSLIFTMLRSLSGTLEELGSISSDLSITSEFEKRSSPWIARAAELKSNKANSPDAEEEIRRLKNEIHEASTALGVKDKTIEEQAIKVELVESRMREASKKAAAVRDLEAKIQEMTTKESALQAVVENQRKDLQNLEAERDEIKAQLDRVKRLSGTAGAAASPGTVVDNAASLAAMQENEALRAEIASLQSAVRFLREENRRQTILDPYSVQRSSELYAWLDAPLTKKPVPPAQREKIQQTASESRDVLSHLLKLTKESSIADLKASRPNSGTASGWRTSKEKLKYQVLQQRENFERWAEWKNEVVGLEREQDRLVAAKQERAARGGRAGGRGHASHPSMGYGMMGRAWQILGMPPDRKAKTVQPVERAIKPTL

What was measured:
[1] = biological target: GFP-dynein HC (NudA) (A. nidulans) (UniProt P45444); assay: co-IP
[2] = biological target: GFP-dynein HC (NudA) with the nudA R1602E phi-opening mutation (A. nidulans) (UniProt P45444); assay: co-IP

- binding [1]: binds
- binding [2]: binds
Substance: dynactin p150 (from UniProt Q8J0T2)
